From paper PMC8084336
These are yes or no findings as the source states them, for the method shown. Binding seen in cells or lysates may run through a third protein.

Target: FLAG-tagged HCV JFH1 NS5A (genotype 2a) (hepatitis C virus JFH1 (genotype 2a))
Assay: co-IP; FLAG-specific immunoprecipitation (anti-FLAG M2 affinity gel, 1 h, 4°C) from lysates of lentivirally transduced cells; NP-40 lysis buffer (50 mM Tris pH 7.4, 150 mM NaCl, 1% NP-40); lysates pre-incubated with 100 U/ml RNaseOUT or 100 μg/ml RNase A for 45 min at 4°C; immunoblot

B1: RNA helicase MOV10 (protein, UniProt Q9HCE1 1-1003)
chain: MPSKFSCRQLREAGQCFESFLVVRGLDMETDRERLRTIYNRDFKISFGTPAPGFSSMLYGMKIANLAYVTKTRVRFFRLDRWADVRFPEKRRMKLGSDISKHHKSLLAKIFYDRAEYLHGKHGVDVEVQGPHEARDGQLLIRLDLNRKEVLTLRLRNGGTQSVTLTHLFPLCRTPQFAFYNEDQELPCPLGPGECYELHVHCKTSFVGYFPATVLWELLGPGESGSEGAGTFYIARFLAAVAHSPLAAQLKPMTPFKRTRITGNPVVTNRIEEGERPDRAKGYDLELSMALGTYYPPPRLRQLLPMLLQGTSIFTAPKEIAEIKAQLETALKWRNYEVKLRLLLHLEELQMEHDIRHYDLESVPMTWDPVDQNPRLLTLEVPGVTESRPSVLRGDHLFALLSSETHQEDPITYKGFVHKVELDRVKLSFSMSLLSRFVDGLTFKVNFTFNRQPLRVQHRALELTGRWLLWPMLFPVAPRDVPLLPSDVKLKLYDRSLESNPEQLQAMRHIVTGTTRPAPYIIFGPPGTGKTVTLVEAIKQVVKHLPKAHILACAPSNSGADLLCQRLRVHLPSSIYRLLAPSRDIRMVPEDIKPCCNWDAKKGEYVFPAKKKLQEYRVLITTLITAGRLVSAQFPIDHFTHIFIDEAGHCMEPESLVAIAGLMEVKETGDPGGQLVLAGDPRQLGPVLRSPLTQKHGLGYSLLERLLTYNSLYKKGPDGYDPQFITKLLRNYRSHPTILDIPNQLYYEGELQACADVVDRERFCRWAGLPRQGFPIIFHGVMGKDEREGNSPSFFNPEEAATVTSYLKLLLAPSSKKGKARLSPRSVGVISPYRKQVEKIRYCITKLDRELRGLDDIKDLKVGSVEEFQGQERSVILISTVRSSQSFVQLDLDFNLGFLKNPKRFNVAVTRAKALLIIVGNPLLLGHDPDWKVFLEFCKENGGYTGCPFPAKLDLQQGQNLLQGLSKLSPSTSGPHSHDYLPQEREGEGGLSLQVEPEWRNEL
- binding: no binding
